Source: PMC12017883
Results are given in words; binding and its absence hold for the method and conditions named. In cells and extracts the contact can be indirect. Here binding means that the protein was enriched with, or labelled near, the bait; the list need not be complete.

Sequences of proteins named here, by UniProt entry; tags and fusion partners are left off. A change or cut given only in a name is not applied to a line headed by its entry.
UniProt P00441: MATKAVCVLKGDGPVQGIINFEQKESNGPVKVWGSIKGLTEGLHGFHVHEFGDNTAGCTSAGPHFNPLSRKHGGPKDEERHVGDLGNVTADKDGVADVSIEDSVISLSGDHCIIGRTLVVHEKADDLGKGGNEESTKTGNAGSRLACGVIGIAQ

Target: human mtSOD1-L126delTT with a FLAG sequence at the C terminus (human) (UniProt P00441)
Test: affinity purification with mass spectrometry; anti-FLAG M2 IP (5 ug antibody, protein A/G magnetic beads) from the nuclear fraction of DF7 cells (500 ug total protein); control IP with monoclonal mouse IgG (MOPC 21); DIA proteomics; hits: log2 FC >= 2 over control or missing in the control IP

B1: Nufip2 (protein, UniProt Q5F2E7 1-692)
chain: MEEKPGQPQPQHHHSHHHPHHHPQQQQQQQSHHHHHYYFYNHSHNHHHHHHHQQPHQYLQHGAEGSPKAQPKPLKHEQKHTLQQHQETPKKKTGYGEINGNAGEREISLKSLSSDEATNPISRVLNGNQQVVETSLKQTVKTSTFGKAGIKTKNFIQKNSMDKKNGKSYENKSGETQAVDKTDTIAIPNGVITSSSGYITNGYMSKGADNDGSGSESGYTTPKKRKARRNSAKGCENLNLVQDKIMQETSVPALKQGLETLKPDYSEQKGMRVDGSKPIWKYETGPGGTSRGKPAMGDVLRKSSDIKPGLSSKKFDDRPKGKHASAAASKEDSWTLFKPPPVFPVDNSSAKIVPKISYASKVKENLNKTVQNSSVSPSSSSSSSSTGETQTQSSSRLSQVPMSALKSVTSASFSNGPVLAGTDGSVYPSGGQPLLTTAANTLTPISTGTDSVLQDMSLASAAVEQIKSSLFIYPSNMQTVLLSAQVDLPSQTDQQNLGDIFQNQWGLSFINEPSAGPETVIGKSSDHKVMEVTFQGEYPATLVSQGAEIIPSGTEHPVFPKAYELEKRTSPQVLGHILKPGTTESGALSLDPSHIGDLQKADTSSQGALVFLSKDYEIENQNPLASPTNTLLGSAKEQRYQRGLERNDSWGSFDLRAAIVYHTKEMESIWNLQKQDPKRIITYNEAMDSPDQ
Question: Which binding does the source give for B1 here?
Answer: Its binding is “binds”.

B2: nuclear RNA export factor 1 (protein, UniProt Q99JX7 1-618)
chain: MADEGKSYNEHDDRVSFPQRRKKGRGPFRWKCGEGNRRSGRGGSGVQSSRFEEDDGDVAMNDPQDGPRVRYNPYTNRPNRRGDGWHDRDRIHITVRRDRAPAERGGAGTSQDGTTKNWFKITIPYGRKYDKTWLLSMIQSKCSVPFNPIEFHYENTRAHFFVEDATTASALKGVNHKIQDRENRRISIIINASAPPYTVQNELKPEQIEQLKLIMSKRYDGNQQALDLKGLRSDPDLVAQNIDVVLNRRSCMAATLRIIEENIPELLSLNLSSNRLYKLDDMSSIVQKAPNLKTLNLSGNELKTERELDKIKGLKLEELWLDRNPMCDNFGDQSSYISAIRERFPKLLRLDGHELPPPISFDVEAPTMLPPCKGSYFGTENLKSLVLRFLQQYYVIYDSGDRQGLLYAYHDGACCSLSIPYNPQNPVRKNLAEYVKDSRNVKKLKEPTQRFRLLKHTRLNVVAFLNELPKTQHDVNAFVVDISAQTSTLLCFSVNGVFKEVDGKSRDSLRAFTRTFIAVPASNSGLCIVNDELFVRNASPEEIQRAFAMSAPTPSSSPVPTLSPEQQEMLQAFSTQSGMNLEWSQKCLQDNNWDYTRSAQAFTLLKAKGEIPEVAFMK
Question: Which binding does the source give for B2 here?
Answer: The binding was “binds”.

B3: Pgam5 (protein, UniProt Q8BX10 1-288)
chain: MAFRQALQLAACGLAGGSAAVLFSAVAVGKPRGGGDADTRATEPPAWTGARAGRGVWDTNWDRREPLSLINLKKRNVESGEDELTSRLDHYKAKATRHIFLIRHSQYHVDGSLEKDRTLTPLGREQAELTGLRLASLGLKFNKIVHSSMTRAVETTDIISKHLPGVSRVSTDLLREGAPIEPDPPVSHWKPEAVQYYEDGARIEAAFRNYIHRADARQEEDSYEIFICHANVIRYIVCRALQFPPEGWLRLSLNNGSITHLVIRPNGRVALRTLGDTGFMPPDKITRS
Question: For B3, which binding is on record?
Answer: Its binding is “binds”.

B4: Prpf3 (protein, UniProt Q922U1 1-683)
chain: MALSKRELDELKPWIEKTVKRVLGFSEPTVVTAALNCVGKGMDKKKAADHLKPFLDDSTLRFVDKLFEAVEEGRSSRHSKSSSDRSRKRELKEVFGDDSEISKESSGVKKRRIPRFEEVEEEPEVIPGPPSESPGMLTKLQIKQMMEAATRQIEERKKQLSFISPPAPQPKTPSSSQPERLPIGNTIQPSQAATFMNDAIEKARKAAELQARIQAQLALKPGLIGNANMVGLANLHAMGIAPPKVELKDQTKPTPLILDEQGRTVDATGKEVELTHRMPTLKANIRAVKREQFKQQLKEKPSEDMESNTFFDPRVSIAPSQRQRRTFKFHDKGKFEKIAQRLRTKAQLEKLQAEISQAARKTGIHTSTRLALIAPKKELKEGDIPEIEWWDSYIIPNGFDLTEENPKREDYFGITNLVEHPAQLNPPVDNDTPVTLGVYLTKKEQKKLRRQTRREAQKELQEKVRLGLTPPPEPKVRISNLMRVLGTEAVQDPTKVEAHVRAQMAKRQKAHEEANAARKLTAEQRKVKKIKKLKEDISQGVHISVYRVRNLSNPAKKFKIEANAGQLYLTGVVVLHKDVNVVVVEGGPKAQKKFKRLMLHRIKWDEQTSNTKGDDDEESDEEAVKKTNKCVLVWEGTAKDRSFGEMKFKQCPTENMAREHFKKHGAEHYWDLALSESVLESTD
Question: B4 was tested. Which binding did it give?
Answer: Its binding is “binds”.

B5: Serine palmitoyltransferase 1 (protein, UniProt O35704 1-473)
chain: MATVAEQWVLVEMVQALYEAPAYHLILEGILILWIIRLVFSKTYKLQERSDLTAKEKEELIEEWQPEPLVPPVSKNHPALNYNIVSGPPTHNIVVNGKECVNFASFNFLGLLANPRVKATAFSSLKKYGVGTCGPRGFYGTFDVHLDLEERLAKFMKTEEAIIYSYGFSTIASAIPAYSKRGDIIFVDSAACFAIQKGLQASRSDIKLFKHNDVADLERLLKEQEIEDQKNPRKARVTRRFIVVEGLYMNTGTICPLPELVKLKYKYKARIFLEESLSFGVLGEHGRGVTEHYGISIDDIDLISANMENALASVGGFCCGRSFVVDHQRLSGQGYCFSASLPPLLAAAAIEALNIMEENPDIFAVLKKKCQNIHKSLQGVSGLKVVGESLSPALHLQLEESTGSREKDVKLLQAIVDQCMDKGIALTQARYLDKEEKCLPPPSIRVVVTVEQTEEELQRAASTIREAAQAVLL
Question: Which binding does the source give for B5 here?
Answer: The binding was “binds”.

B6: Sart1 (protein, UniProt Q9Z315 1-806)
chain: MGSSKKHRGEKEAAGTTAAAGTGGTTEQPPRHREHKKHKHRSSGGGSSGGERRKRSRERGSERGSGRRGAEAEARSGAHGRERSQAEPSERRVKREKRDDGYEAAASSKASSGDASSLSIEETNKLRAKLGLKPLEVNAVKKEAGTKEEPVAADVINPMALRQREELREKLAAAKEKRLLNQKLGKIKTLGEDDPWLDDTAAWIERSRQLQKEKDLAEKRAKLLEEMDQEFGVSTLVEEEFEQRRQDLYSARDLQGLTVEHAIDSFREGETVVLTLKDKGVLQDGEDVLVNVNMVDKERADKNVELRKKKPDYLPYAEDESVDDLAQQKPRSILAKYDEELEGERPHSFRLEQGGMADGLRERELEEIRTKLRLQAQSLSSVGPRLASEYLSPEEMVTFKKTKRRVKKIRKKEKEVIMRADDLLPLGDQTQDGDFGSRLRGRGRRRVPEVEEEALEDEEKDPVAQPPPSDDTRVENMDISDEEDGGALPPGSPEGLEEDEAELELQKQLEKGRRLRQLQQLQQLRDSGEKVLEIVKKLESRQRGWEEEEDPERKGTIVFNATSEFCRTLGEIPTYGLAGNREEQEELMDFERDEERSANGGSESDGEENIGWSTVNLDEEKQHQDFSASSTTILDEEPIVNRGLAAALLLCQNKGLLETTVQKVARVKAPNKSLPSAVYCIEDKMAIDDKYSRREEYRGFTQDFKEKDGYKPDVKIEYVDETGRKLTPKEAFRQLSHRFHGKGSGKMKTERRMKKLDEEALLKKMSSSDTPLGTVALLQEKQKAQKTPYIVLSGSGKSMNANTITK
Question: How did the binding turn out when B6 was run?
Answer: Its binding is “binds”.

B7: Serbp1 (protein, UniProt Q9CY58 1-407)
chain: MPGHLQEGFGCVVTNRFDQLFDDESDPFEVLKAAENKKKEAGGGGVGGPGAKSAAQAAAQTNSNAAGKQLRKESQKDRKNPLPPSVGVADKKEETQPPVALKKEGIRRVGRRPDQQLQGDGKLIDRRAERRPPRERRFEKPLEEKGEGGEFSVDRPIIERPIRGRGGLGRGRGGRGRGMGRGDGFDSRGKREFDRHSGSDRSSFSHYSGLKHEDKRGGSGSHNWGTVKDELTESPKYIQKQISYNCSDLDQSNVTEETPEGEEHPVADTENKENEVEEVKEEGPKEMTLDEWKAIQNKDRAKVEFNIRKPNEGADGQWKKGFVLHKSKSEEAHAEDSVMDHHFRKPANDITSQLEINFGDLGRPGRGGRGGRGGRGRGGRPNRGSRTDKSSASAPDVDDPEAFPALA
Question: With B7 as the binder, how does the binding read?
Answer: Its binding is “binds”.

B8: Sfpq (protein, UniProt Q8VIJ6 1-699)
chain: MSRDRFRSRGGGGGGFHRRGGGGGRGGLHDFRSPPPGMGLNQNRGPMGPGPGGPKPPLPPPPPHQQQQQPPPQQPPPQQPPPHQQPPPHQPPHQQPPPPPQESKPVVPQGPGSAPGVSSAPPPAVSAPPANPPTTGAPPGPGPTPTPPPAVPSTAPGPPPPSTPSSGVSTTPPQTGGPPPPPAGGAGPGPKPGPGPGGPKGGKMPGGPKPGGGPGMGAPGGHPKPPHRGGGEPRGGRQHHAPYHQQHHQGPPPGGPGPRTEEKISDSEGFKANLSLLRRPGEKTYTQRCRLFVGNLPADITEDEFKRLFAKYGEPGEVFINKGKGFGFIKLESRALAEIAKAELDDTPMRGRQLRVRFATHAAALSVRNLSPYVSNELLEEAFSQFGPIERAVVIVDDRGRSTGKGIVEFASKPAARKAFERCSEGVFLLTTTPRPVIVEPLEQLDDEDGLPEKLAQKNPMYQKERETPPRFAQHGTFEYEYSQRWKSLDEMEKQQREQVEKNMKDAKDKLESEMEDAYHEHQANLLRQDLMRRQEELRRMEELHSQEMQKRKEMQLRQEEERRRREEEMMIRQREMEEQMRRQREESYSRMGYMDPRERDMRMGGGGTMNMGDPYGSGGQKFPPLGGGGGIGYEANPGVPPATMSGSMMGSDMRTERFGQGGAGPVGGQGPRGMGPGTPAGYGRGREEYEGPNKKPRF
Question: How did the binding turn out when B8 was run?
Answer: The binding was “binds”.

B9: Srrt (protein, UniProt Q99MR6 1-875)
chain: MGDSDDEYDRRRRDKFRRERSDYDRSRERDERRRGDDWNDREWDRGRERRSRGEYRDYDRNRRERFSPPRHELSPPQKRMRRDWDEHSSDPYHSGYDMPYAGGGGGPTYGPPQPWGHPDVHIMQHHVLPIQARLGSIAEIDLGVPPPIMKSFKEFLLSLDDSVDETEAVKRYNDYKLDFRRQQMQDFFLAHKDEEWFRSKYHPDEVGKRRQEARGALQNRLKVFLSLMESGWFDNLLLDIDKADAIVKMLDAAVIKMEGGTENDLRILEQEEEEEQAGKTGEASKKEEARAGPALGEGERKANDKDEKKEDGKQAENDSSNDDKTKKSEGDGDKEEKKEEAEKEAKKSKKRNRKQSGDDSFDEGSVSESESESEGGQAEEEKEEAEEALKEKEKPKEEEKEKPKDAAGLECKPRPLHKTCSLFMRNIAPNISRAEIISLCKRYPGFMRVALSEPQPERRFFRRGWVTFDRSVNIKEICWNLQNIRLRECELSPGVNRDLTRRVRNINGITQHKQIVRNDIKLAAKLIHTLDDRTQLWASEPGTPPVPTSLPSQNPILKNITDYLIEEVSAEEEELLGSSGGPPPEEPPKEGNPAEINVERDEKLIKVLDKLLLYLRIVHSLDYYNTCEYPNEDEMPNRCGIIHVRGPMPPNRISHGEVLEWQKTFEEKLTPLLSVRESLSEEEAQKMGRKDPEQEVEKFVTSNTQELGKDKWLCPLSGKKFKGPEFVRKHIFNKHAEKIEEVKKEVAFFNNFLTDAKRPALPEIKPAQPPGPAQILPPGLTPGLPYPHQTPQGLMPYGQPRPPILGYGAGAVRPAVPTGGPPYPHAPYGAGRGNYDAFRGQGGYPGKPRNRMVRGDPRAIVEYRDLDAPDDVDFF
Question: How did the binding turn out when B9 was run?
Answer: Its binding is “binds”.
